Results published in PubChem BioAssay AID590 (National Center for Advancing Translational Sciences (NCATS), 2007).
The campaign covered roughly 59,000 compounds. About 6,500 (11%) were called active. Inconclusive results, whose numbers are uncertain, are shown with a selection of clear calls. No stated cut-off is given here; in the data, active means max dye-equivalent concentration above about 10 nM; inconclusive means mostly about 1.1 nM to 9.6 nM; inactive means weaker than that.

Assay: qHTS Assay for Spectroscopic Profiling in A350 Spectral Region
Settings: Compound autofluorescence, 340/450 nm, Alexa 350 dye-equivalents; stronger effect = higher value

Row | SMILES | max dye-equivalent concentration
1 | COc1ccccc1CN1CCCC2(CCN(C(=O)c3cnccn3)CC2)C1 | inactive
2 | Cc1c(N=Cc2nc3ccccc3[nH]2)c(=O)n(-c2ccccc2)n1C | inconclusive: 5 nM
3 | COc1ccc(Nc2nc(C)c3ccccc3n2)cc1 | inconclusive: 5 nM
4 | CCN(CC)C(=O)CN1C(=O)C2(OCC(C)(c3ccccc3)CO2)c2ccccc21 (stereo not drawn) | inconclusive: 1.2 nM
5 | CCCN1C(=O)/C(=C2\SC(N3CCCCC3)=NC2=O)c2ccccc21 | inconclusive: 2.7 nM
6 | Cc1ccc(Cl)cc1N1CCN(C(=O)CN2C(=O)c3cccc4cccc2c34)CC1 | active: 74 nM
7 | CCOC(=O)c1c(C)[nH]c(C(=O)COC(=O)c2ccc(N3CCCC3=O)cc2)c1C | inconclusive: 1.4 nM
8 | Cn1c(=O)c2c(nc(CN3CCc4ccccc4C3)n2CC(=O)c2ccccc2)n(C)c1=O | inactive
9 | COc1ccc(C(=O)CN2C(=O)NC3(CCCc4ccccc43)C2=O)cc1OC (stereo not drawn) | inactive
10 | COC(=O)c1[nH]c2ccc(C)cc2c1NC(=O)CN1CCN(c2ccc(F)cc2)CC1 | inconclusive: 2.1 nM
11 | Cc1cc2ccccc2c(=O)n1CC(=O)N1CCN(c2cccc(Cl)c2)CC1 | inconclusive: 1.1 nM
12 | Cc1cc(N2CCN(c3nc(N4CCOCC4)nc4ccccc34)CC2)c2ccccc2n1 | active: 47 nM
13 | O=C(c1ccco1)c1cn(CC(=O)N2CCCc3ccccc32)c2ccccc12 | inconclusive: 7.8 nM
14 | COc1ccccc1CNc1ncncc1-c1ccccc1Cl | inactive
15 | COc1cccc(NC(=O)c2oc3ccccc3c2NC(=O)C(C)(C)C)c1 | inconclusive: 2.8 nM
16 | CCC(=O)Nc1ccc2nc(C3CC3)n(Cc3ccccc3)c(=O)c2c1 | inconclusive: 1.4 nM
17 | CC(=O)/C(C(=N)N1CCN(c2cccc(Cl)c2)CC1)=C(\C)O | inconclusive: 1.7 nM
18 | CSc1nnc(-c2ccc(NC(=O)CCc3ccccc3)cc2)n1C | active: 13 nM
19 | Cc1cc(C)nc(SCCn2c(N3CCC(C)CC3)nc3c2c(=O)n(C)c(=O)n3C)n1 | inconclusive: 3.8 nM
20 | Cc1ccc(C(=O)N2CCN(C(=O)CN3CCCC3)C2)cc1 | inconclusive: 1.9 nM

Part of the list above, reformatted.
Row	SMILES	max dye-equivalent concentration
2	Cc1c(N=Cc2nc3ccccc3[nH]2)c(=O)n(-c2ccccc2)n1C	inconclusive: 5 nM
12	Cc1cc(N2CCN(c3nc(N4CCOCC4)nc4ccccc34)CC2)c2ccccc2n1	active: 47 nM
18	CSc1nnc(-c2ccc(NC(=O)CCc3ccccc3)cc2)n1C	active: 13 nM

Additional compounds follow:

Row | SMILES | max dye-equivalent concentration
21 | COCCCNC(=O)c1ccccc1NS(C)(=O)=O | inconclusive: 4.2 nM
22 | COc1c(Cl)cc(Cl)cc1/C=N/n1cnnc1 | inconclusive: 2.3 nM
23 | COc1ccccc1-c1cc(C(=O)NCc2ccco2)no1 | inconclusive: 4.3 nM
24 | O=C(CSc1nc2ccccc2c(=O)n1CCC(=O)N1CCCCC1)NCc1ccccc1 | inconclusive: 1.1 nM
25 | O=C(O)CSc1n[nH]c(=O)[nH]c1=O | inactive
26 | CCc1cc(=O)oc2c(CN3CCN(C)CC3)c(O)c(Cl)cc12 | active: 14000 nM
27 | N#CCCn1c(-c2nonc2NC(=O)c2ccccc2Cl)nc2ccccc21 | inconclusive: 3.5 nM
28 | O=C(Nc1cccc2cccc(NC(=O)c3ccco3)c12)c1ccco1 | inactive
29 | COC(=O)c1ccc(CN(c2ccccc2OC)S(=O)(=O)c2cccs2)o1 | inconclusive: 1.1 nM
30 | CNC(=O)C1=NCCCc2cc(OC)c(OC)cc21 | active: 2300 nM
31 | Cc1cc(C)c(NC(=O)CS(=O)CC(=O)NCC2CCCO2)c(C)c1 (stereo not drawn) | inactive
32 | c1cncc(-c2cncnc2NC2CCNCC2)c1 | inactive
33 | Clc1cccc(-c2cc3nc4c(c(N5CCOCC5)n3n2)CCCC4)c1 | active: 130 nM
34 | c1ccc2c(c1)sc1nnnn12 | inactive
35 | COC(=O)c1ccc(CSc2nc3scc(-c4cccs4)c3c(=O)[nH]2)o1 | inactive
36 | CC(=O)Oc1c(C)cc(O)c2ccccc12 | inconclusive: 7.1 nM
37 | O=C(O)C1CCC(=O)N1Cc1ccccc1Cl (stereo not drawn) | inactive
38 | NC(Cc1ccc(Oc2ccc(O)cc2)cc1)C(=O)O (stereo not drawn) | inconclusive: 1.5 nM
39 | CC(=O)Cc1nsc(NC(=O)c2ccc(-c3ccccc3Cl)o2)n1 | inconclusive: 2.5 nM
40 | Cn1c(SCC(=O)NCc2ccccc2)nnc1C1CC1 | inactive

Row | SMILES | max dye-equivalent concentration
41 | CCCC(=O)c1c(NC(C)C)cc(C)oc1=O | inactive
42 | CCc1cc2c(NCCC(=O)O)ncnc2s1 | inconclusive: 8.6 nM
43 | COc1ccccc1CNC(=O)c1ccc(S(=O)(=O)N(C)C)cc1 | inactive
44 | CCOC(=O)C1CCCN(CC(=O)Nc2c(C(=O)OC)[nH]c3ccc(Br)cc23)C1 (stereo not drawn) | inactive
45 | Cc1ccc(CNC(=O)C2CCCN(S(=O)(=O)c3cccnc3)C2)cc1 (stereo not drawn) | inconclusive: 3.2 nM
46 | CC1(C)CC(N(Cc2cccs2)C(=O)c2ccco2)CCO1 (stereo not drawn) | inconclusive: 2.3 nM
47 | CC(C)c1nc2oc3c(NCc4ccccn4)ncnc3c2c2c1COC(C)(C)C2 | inconclusive: 2.1 nM
48 | O=c1c(CCc2ccccc2)nc2cnc(N3CCNCC3)nc2n1-c1ccccc1 | inconclusive: 7.5 nM
49 | CC(=O)Nc1ccc(C2(O)COc3ccccc3O2)cc1 (stereo not drawn) | inactive
50 | COc1nc(-c2ccccc2)ccc1-c1noc(C)n1 | inconclusive: 1.9 nM
51 | CCCCNC(=O)C1CCCN(S(=O)(=O)c2ccc(-n3cnnn3)cc2)C1 (stereo not drawn) | inconclusive: 2.4 nM
52 | COCCn1c(=O)c(-c2ccc(F)cc2)nc2cnc(Oc3cccc(Cl)c3)nc21 | inconclusive: 6.7 nM
53 | O=C(NC1CCCCCC1)C1CC(=O)N(Cc2ccccc2)C1 (stereo not drawn) | inconclusive: 2.2 nM
54 | O=C(c1ccncc1)N1CCC[C@@]2(CCN(c3ncccn3)C2)C1 | inactive
55 | COC(=O)Cn1cc(C(=O)OC)c2ccccc21 | inactive
56 | COC(=O)C1C(=O)C2=C(CC1C)NC(C)=C(C(=O)OC1CCCC1)C2c1ccc(N(C)C)cc1 (stereo not drawn) | inconclusive: 3.8 nM
57 | CCOC(=O)c1[nH]nc(-c2c(O)cc(C)cc2O)c1-c1csc(C)n1 | inactive
58 | CO[C@@H]1/C=C\O[C@@]2(C)Oc3c(C)c(O)c4c(c3C2=O)C(=N[C@H]2CC[C@H](O)O[C@@H]2C)C=C(NC(=O)/C(C)=C\C(=O)[C@@H]2C[C@@H]2[C@@H](O)[C@H](C)[C@@H](O)[C@H](C)[C@H](OC(C)=O)[C@@H]1C)C4=O | inconclusive: 7.5 nM
